The experiment concerns BDF1 mice, s.c. Lewis lung carcinoma, T/C %. The experiment can be described thus: NCI In Vivo Anticancer Drug Screen. Data for tumor model Lewis Lung Carcinoma (subcutaneous) in B6D2F1 (BDF1) mice. How it is done:
The antitumor activity of compounds was measured in mice bearing transplantable tumors. Survival or tumor size were measured and the results are expressed as the measurement made in the treated group (T) divided by the measurement made in the vehicle treated control group (C). The tumor model used in this assay is Lewis Lung Carcinoma (subcutaneous) in B6D2F1 (BDF1) mice

Where [1] appears, read: T/C endpoint: median survival time, dose: 15.0 mg/kg/injection, schedule: Q01DX009 (ip), vehicle: Klucel (hydroxypropylcellulose) (HPC), higher T/C = longer survival.
Where [2] appears, read: T/C endpoint: median survival time, dose: 800.0 mg/kg/injection, schedule: Q01DX009 (ip), vehicle: saline, higher T/C = longer survival.

The list shows only some results of the screen, not a fair sample: it gathers tests that were run many times, whatever their T/C, doses with no T/C, and many T/C values between a quarter and a half above the control. Further doses and runs are listed elsewhere. T/C is the treated group as % of the vehicle group. Schedule codes are those of the source, read here as Q, the interval in days (D) or hours (H), X, the number of doses. Some entries hold several experiments; their values stand side by side, smallest first. Signs of the kind (2×) count equal records among those shown. Some entries give survivors of the animals treated and no T/C: the source holds a T/C of zero for them, seemingly a mark for toxic or unscored doses. Some survivor counts are full or nearly so, which does not show that the dose was tolerated: survival well below the control is almost never listed, so the zero probably covers shortened survival too. Survivors were counted at the toxicity check, usually on the fifth day, unless a day is given; later deaths do not show. Where survival is the endpoint, this PubChem deposit counts one and a half times the control or more as active, and values a quarter to a half above the control carry no call in these data; other NCI protocols may use other cut-offs.

`S=c1nc[nH]c2nc[nH]c12`: the T/C runs as follows: under setting [1], 141 % of control; (T/C endpoint: median tumor weight (est.), dose: 10.0 mg/kg/injection, schedule: Q01DX011 (ip), vehicle: alkali diluted with saline, evaluated on day 12, higher T/C = larger tumour) 132 % of control. Moreover, the survivor count by setting is: under setting [1], 10 of 10; (T/C endpoint: median survival time, dose: 15.0 mg/kg/injection, schedule: Q01DX009 (ip), vehicle: saline with Tween-80, higher T/C = longer survival) 10 of 10; (T/C endpoint: median survival time, dose: 16.0 mg/kg/injection, schedule: Q01DX009 (ip), vehicle: saline, higher T/C = longer survival) 10 of 10; (T/C endpoint: median survival time, dose: 30.0 mg/kg/injection, schedule: Q01DX009 (ip), vehicle: Klucel (hydroxypropylcellulose) (HPC), higher T/C = longer survival) 10 of 10 and 9 of 9; (T/C endpoint: median survival time, dose: 30.0 mg/kg/injection, schedule: Q01DX009 (ip), vehicle: saline with Tween-80, higher T/C = longer survival) 10 of 10; (T/C endpoint: median survival time, dose: 32.0 mg/kg/injection, schedule: Q01DX009 (ip), vehicle: saline, higher T/C = longer survival) 10 of 10. For the same compound, the survivor count reads like this: (T/C endpoint: median survival time, dose: 60.0 mg/kg/injection, schedule: Q01DX009 (ip), vehicle: Klucel (hydroxypropylcellulose) (HPC), higher T/C = longer survival) 9 of 10 and 10 of 10; (T/C endpoint: median survival time, dose: 60.0 mg/kg/injection, schedule: Q01DX009 (ip), vehicle: saline with Tween-80, higher T/C = longer survival) 10 of 10; (T/C endpoint: median survival time, dose: 80.0 mg/kg/injection, schedule: Q01DX011 (ip), vehicle: alkali diluted with saline, higher T/C = longer survival) 10 of 10; (T/C endpoint: median survival time, dose: 120.0 mg/kg/injection, schedule: Q01DX009 (ip), vehicle: Klucel (hydroxypropylcellulose) (HPC), higher T/C = longer survival) 9 of 10 and 10 of 10; (T/C endpoint: median survival time, dose: 120.0 mg/kg/injection, schedule: Q01DX009 (ip), vehicle: saline with Tween-80, higher T/C = longer survival) 10 of 10; (T/C endpoint: median tumor weight (est.), dose: 60.0 mg/kg/injection, schedule: Q01DX009 (ip), vehicle: saline with Tween-80, higher T/C = larger tumour) 4 of 10.
As to `Nc1n[nH]c(N)n1`, the T/C (T/C endpoint: median survival time, dose: 100.0 mg/kg/injection, schedule: Q01DX009 (ip), vehicle: saline, higher T/C = longer survival) was 100 (2×), 108, 121 % of control; the T/C (T/C endpoint: median survival time, dose: 200.0 mg/kg/injection, schedule: Q01DX009 (ip), vehicle: saline, higher T/C = longer survival) is given as 96, 127, 130, 139 % of control; the T/C (T/C endpoint: median survival time, dose: 400.0 mg/kg/injection, schedule: Q01DX009 (ip), vehicle: saline, higher T/C = longer survival) was 114, 120, 130, 157 % of control; the T/C under setting [2] was 114, 154, 155 % of control. The survivor count under setting [2] is 7 of 10.
Turning to `Cc1c2ccncc2c(C)c2c1[nH]c1ccccc12`, the T/C (T/C endpoint: median survival time, dose: 18.75 mg/kg/injection, schedule: Q04DX003 (ip), vehicle: saline with Tween-80, higher T/C = longer survival) was 129 % of control. Further, the survivor count (T/C endpoint: median survival time, dose: 150.0 mg/kg/injection, schedule: Q04DX003 (ip), vehicle: saline with Tween-80, higher T/C = longer survival) is on record as 10 of 10.
Regarding `C[C@]12CC[C@H](O)CC1=CC[C@@H]1[C@@H]2CC[C@]2(C)c3nc4ccccc4cc3C[C@@H]12`, the T/C is 45 (2×) and 125 % of control (2×) (T/C endpoint: mean tumor weight, dose: 15.0 mg/kg/injection, schedule: Q01DX011 (sc), vehicle: steroid suspending solution, evaluated on day 12, higher T/C = larger tumour); 44 (2×) and 47 % of control (2×) (T/C endpoint: mean tumor weight, dose: 30.0 mg/kg/injection, schedule: Q01DX011 (sc), vehicle: steroid suspending solution, evaluated on day 12, higher T/C = larger tumour). The survivor count (T/C endpoint: mean tumor weight, dose: 1000.0 mg/kg/injection, schedule: Q01DX011 (sc), vehicle: steroid suspending solution, higher T/C = larger tumour) is 3 of 7.
Regarding `CC(=O)O[C@]1(C(C)=O)CC[C@H]2[C@@H]3C[C@H](C)C4=CC(=O)CC[C@]4(C)[C@H]3CC[C@@]21C`, the survivor count (T/C endpoint: median survival time, dose: 800.0 mg/kg/injection, schedule: Q01DX009 (ip), vehicle: Klucel (hydroxypropylcellulose) (HPC), higher T/C = longer survival) is 7 of 10.
As for `C=C[C@]1(C)C=C2CC[C@@H]3[C@](C)(CCC[C@@]3(C)C(=O)O)[C@H]2CC1`, the survivor count (T/C endpoint: mean tumor weight, dose: 500.0 mg/kg/injection, schedule: Q01DX011 (ip), vehicle: saline, higher T/C = larger tumour) was 0 of 6.
`O=C1OC(C(O)CO)C(O)=C1O` (centres undefined): the T/C (T/C endpoint: median survival time, dose: 10.0 mg/kg/injection, schedule: Q02DX009 (ip), vehicle: saline, higher T/C = longer survival) was 133 % of control and the T/C (T/C endpoint: median survival time, dose: 100.0 mg/kg/injection, schedule: Q02DX009 (ip), vehicle: saline, higher T/C = longer survival) is 128 % of control.
As to `CC(=O)Nc1ccc2nc3ccc(NC(C)=O)cc3[n+](-c3ccccc3)c2c1`, under “T/C endpoint: mean tumor weight, dose: 100.0 mg/kg/injection, schedule: Q01DX011 (ip), vehicle: saline, higher T/C = larger tumour”, the survivor count is listed as 3 of 6.
